Data set [1] in a line: Loading of rhodamine B derivatives on MNPs by silanization, UV-vis at 554 nm (indirect, subtraction). The following applies: on MNPs (0.37 mg), ethanol, 24 hrs.
Data set [2] is described as follows: Loading of glucosamine 14 on MNPs, quantified by additional rhodamine B 2 immobilized.

Consider four substances from patent publication US8143072B2, “System for detecting nanoparticles using modulated surface plasmon resonance” (The University of Toledo, priority 2006, dated 2012).

Regarding “Rhodamine B ACA APTES Conjugate [Rhodamine B derivative 2]”, the “Maximum Loading Level” value in data set [1] amounted to 0.0015 mol/g. Same read-out and setting: the same measure for “Rhodamine B PentaACA APTES Conjugate [Rhodamine B derivative 4]”: 0.00111 mol/g; for “Rhodamine B TriACA APTES Conjugate [Rhodamine B derivative 3]”: 0.00153 mol/g.

Take “p-[4-(N-(3-Triethoxysilylpropylamino)succinamido)]-benzyl 4,6-O-benzylidene-2-deoxy-2-phthalimido-β-D-glucopyranoside [glucosamine 14]”: the “amount added at which additional rhodamine B 2 immobilized became zero” value in data set [2] (MNPs (0.37 mg), FIG. 23) worked out at 1.0 µmol. Further, the “maximum loading level on MNPs” value in data set [2] (assuming 60% of 14 added was immobilized) worked out at 0.0016 mol/g.
